According to the supplement of paper PMC12067093, “Discovery and optimisation of a covalent ligand for TRIM25 and its application to targeted protein ubiquitination” (Chemical Science, 2025):
The other results are listed elsewhere or left out.

Sequences of proteins named here, by UniProt entry; tags and fusion partners are left off. A change or cut given only in a name is not applied to a line headed by its entry.
UniProt Q8N1G0: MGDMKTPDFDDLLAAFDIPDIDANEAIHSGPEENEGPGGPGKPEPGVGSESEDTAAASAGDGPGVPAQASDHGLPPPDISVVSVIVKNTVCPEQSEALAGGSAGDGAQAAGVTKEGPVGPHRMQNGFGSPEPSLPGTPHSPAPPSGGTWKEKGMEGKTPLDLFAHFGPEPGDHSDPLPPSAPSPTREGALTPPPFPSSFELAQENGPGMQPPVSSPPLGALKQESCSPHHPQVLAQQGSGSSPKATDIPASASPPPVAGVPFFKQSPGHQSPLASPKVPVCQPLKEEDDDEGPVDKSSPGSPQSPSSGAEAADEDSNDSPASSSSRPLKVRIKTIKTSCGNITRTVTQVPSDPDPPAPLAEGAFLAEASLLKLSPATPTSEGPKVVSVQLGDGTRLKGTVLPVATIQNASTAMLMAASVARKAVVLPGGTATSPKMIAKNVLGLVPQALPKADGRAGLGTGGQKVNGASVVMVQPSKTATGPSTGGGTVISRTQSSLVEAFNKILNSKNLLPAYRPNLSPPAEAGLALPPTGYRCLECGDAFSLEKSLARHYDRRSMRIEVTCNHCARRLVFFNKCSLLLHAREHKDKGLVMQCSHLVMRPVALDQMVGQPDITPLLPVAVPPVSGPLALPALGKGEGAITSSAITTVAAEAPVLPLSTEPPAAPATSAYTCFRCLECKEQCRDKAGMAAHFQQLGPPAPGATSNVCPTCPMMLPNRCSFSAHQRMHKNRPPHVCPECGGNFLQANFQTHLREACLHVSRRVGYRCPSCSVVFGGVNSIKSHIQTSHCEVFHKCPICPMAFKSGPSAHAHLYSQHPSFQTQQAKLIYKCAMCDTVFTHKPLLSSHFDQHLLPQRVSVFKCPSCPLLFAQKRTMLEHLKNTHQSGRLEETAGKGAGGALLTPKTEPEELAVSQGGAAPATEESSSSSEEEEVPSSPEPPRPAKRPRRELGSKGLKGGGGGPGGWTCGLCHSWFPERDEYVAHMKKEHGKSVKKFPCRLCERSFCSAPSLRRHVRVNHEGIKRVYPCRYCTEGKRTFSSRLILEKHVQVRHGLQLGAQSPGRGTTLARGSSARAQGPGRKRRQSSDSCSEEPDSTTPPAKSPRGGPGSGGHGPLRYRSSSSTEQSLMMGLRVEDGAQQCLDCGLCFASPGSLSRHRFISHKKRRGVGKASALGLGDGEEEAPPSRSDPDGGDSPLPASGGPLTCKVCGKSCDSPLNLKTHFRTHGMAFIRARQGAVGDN
UniProt Q92618: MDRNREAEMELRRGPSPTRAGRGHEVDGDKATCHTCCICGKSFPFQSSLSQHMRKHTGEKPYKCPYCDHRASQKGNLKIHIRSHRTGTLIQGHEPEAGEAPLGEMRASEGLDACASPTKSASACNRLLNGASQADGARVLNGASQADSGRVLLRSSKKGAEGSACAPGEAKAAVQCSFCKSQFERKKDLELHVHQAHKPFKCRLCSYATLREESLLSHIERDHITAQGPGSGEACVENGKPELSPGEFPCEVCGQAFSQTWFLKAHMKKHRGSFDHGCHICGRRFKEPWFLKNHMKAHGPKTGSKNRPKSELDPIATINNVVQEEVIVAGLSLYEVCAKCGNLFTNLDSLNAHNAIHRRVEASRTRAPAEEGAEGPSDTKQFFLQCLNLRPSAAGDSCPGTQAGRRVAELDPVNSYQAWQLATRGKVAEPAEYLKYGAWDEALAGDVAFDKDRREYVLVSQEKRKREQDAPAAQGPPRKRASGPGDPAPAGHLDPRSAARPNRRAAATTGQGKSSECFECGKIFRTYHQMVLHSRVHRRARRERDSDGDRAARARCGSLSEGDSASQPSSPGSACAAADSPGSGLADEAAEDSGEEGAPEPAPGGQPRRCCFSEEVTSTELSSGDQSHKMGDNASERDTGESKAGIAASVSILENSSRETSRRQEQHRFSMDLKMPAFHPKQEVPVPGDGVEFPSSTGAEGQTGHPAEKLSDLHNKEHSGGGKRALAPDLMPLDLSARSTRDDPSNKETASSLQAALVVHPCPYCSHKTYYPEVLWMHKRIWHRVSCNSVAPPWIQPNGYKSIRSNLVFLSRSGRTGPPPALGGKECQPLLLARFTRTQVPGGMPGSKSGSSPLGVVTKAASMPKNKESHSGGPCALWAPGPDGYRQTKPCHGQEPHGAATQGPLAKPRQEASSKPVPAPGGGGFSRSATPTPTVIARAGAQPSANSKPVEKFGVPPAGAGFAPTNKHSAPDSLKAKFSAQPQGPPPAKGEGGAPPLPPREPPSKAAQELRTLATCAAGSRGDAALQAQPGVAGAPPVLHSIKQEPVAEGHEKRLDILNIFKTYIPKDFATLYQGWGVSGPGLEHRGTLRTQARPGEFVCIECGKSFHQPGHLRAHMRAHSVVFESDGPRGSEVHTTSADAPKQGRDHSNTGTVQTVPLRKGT
UniProt Q86UK7: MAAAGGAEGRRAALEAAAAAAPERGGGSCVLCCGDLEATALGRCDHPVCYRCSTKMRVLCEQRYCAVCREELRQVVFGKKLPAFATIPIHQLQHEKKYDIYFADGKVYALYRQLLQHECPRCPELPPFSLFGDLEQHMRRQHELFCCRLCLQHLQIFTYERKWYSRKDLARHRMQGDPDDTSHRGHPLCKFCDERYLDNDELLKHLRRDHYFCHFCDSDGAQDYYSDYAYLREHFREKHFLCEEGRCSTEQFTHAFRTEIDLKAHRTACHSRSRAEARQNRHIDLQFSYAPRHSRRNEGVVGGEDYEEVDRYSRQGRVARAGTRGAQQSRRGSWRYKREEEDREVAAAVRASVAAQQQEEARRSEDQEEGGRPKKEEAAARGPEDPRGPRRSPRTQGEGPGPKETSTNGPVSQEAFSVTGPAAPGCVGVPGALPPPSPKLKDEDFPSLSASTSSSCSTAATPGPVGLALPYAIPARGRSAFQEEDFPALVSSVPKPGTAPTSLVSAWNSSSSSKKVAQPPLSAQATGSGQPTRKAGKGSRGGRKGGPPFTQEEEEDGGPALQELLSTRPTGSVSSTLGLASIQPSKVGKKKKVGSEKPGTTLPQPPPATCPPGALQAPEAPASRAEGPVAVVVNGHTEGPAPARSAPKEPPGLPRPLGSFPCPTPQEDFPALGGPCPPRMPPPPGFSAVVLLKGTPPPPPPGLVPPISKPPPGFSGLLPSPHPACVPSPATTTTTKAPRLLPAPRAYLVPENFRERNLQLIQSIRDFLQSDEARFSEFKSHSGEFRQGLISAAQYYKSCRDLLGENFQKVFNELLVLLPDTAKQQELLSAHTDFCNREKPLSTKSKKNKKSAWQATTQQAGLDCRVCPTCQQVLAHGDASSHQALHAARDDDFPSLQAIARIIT
UniProt Q14202: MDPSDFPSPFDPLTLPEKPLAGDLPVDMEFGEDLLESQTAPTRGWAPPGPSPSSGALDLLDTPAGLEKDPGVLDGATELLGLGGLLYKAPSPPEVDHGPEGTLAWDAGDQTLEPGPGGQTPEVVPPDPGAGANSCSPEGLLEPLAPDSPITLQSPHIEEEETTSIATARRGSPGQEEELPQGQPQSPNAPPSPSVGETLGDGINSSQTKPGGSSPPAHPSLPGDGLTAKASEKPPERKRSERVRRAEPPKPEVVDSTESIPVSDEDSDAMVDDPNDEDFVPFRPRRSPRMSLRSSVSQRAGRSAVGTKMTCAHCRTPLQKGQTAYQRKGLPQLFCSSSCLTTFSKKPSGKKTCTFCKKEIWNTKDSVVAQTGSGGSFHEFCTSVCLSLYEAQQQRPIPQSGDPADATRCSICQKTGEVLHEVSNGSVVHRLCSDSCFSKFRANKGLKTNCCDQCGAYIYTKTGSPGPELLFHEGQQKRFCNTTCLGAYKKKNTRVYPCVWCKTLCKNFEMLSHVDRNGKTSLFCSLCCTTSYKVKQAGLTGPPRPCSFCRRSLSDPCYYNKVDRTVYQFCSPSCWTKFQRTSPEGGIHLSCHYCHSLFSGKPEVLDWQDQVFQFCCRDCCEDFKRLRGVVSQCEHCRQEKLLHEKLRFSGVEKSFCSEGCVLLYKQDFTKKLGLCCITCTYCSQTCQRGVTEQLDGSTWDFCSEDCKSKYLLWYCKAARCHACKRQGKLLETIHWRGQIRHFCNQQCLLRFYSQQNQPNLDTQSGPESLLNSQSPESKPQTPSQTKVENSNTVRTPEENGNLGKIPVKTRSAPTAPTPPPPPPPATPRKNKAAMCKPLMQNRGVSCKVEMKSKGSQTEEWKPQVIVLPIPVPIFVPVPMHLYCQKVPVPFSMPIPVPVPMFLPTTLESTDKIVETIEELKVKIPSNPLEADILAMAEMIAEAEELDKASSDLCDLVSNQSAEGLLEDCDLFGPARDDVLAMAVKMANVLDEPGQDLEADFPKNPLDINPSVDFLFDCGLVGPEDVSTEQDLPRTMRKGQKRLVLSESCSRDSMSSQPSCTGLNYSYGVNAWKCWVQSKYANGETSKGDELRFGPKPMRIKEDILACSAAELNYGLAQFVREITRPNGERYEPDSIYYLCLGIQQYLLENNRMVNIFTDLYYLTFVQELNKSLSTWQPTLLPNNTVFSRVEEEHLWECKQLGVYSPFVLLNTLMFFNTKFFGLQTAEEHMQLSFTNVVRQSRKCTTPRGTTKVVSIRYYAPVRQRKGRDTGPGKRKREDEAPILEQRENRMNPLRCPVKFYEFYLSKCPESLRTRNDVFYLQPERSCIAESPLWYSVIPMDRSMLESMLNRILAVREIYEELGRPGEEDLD
UniProt O95159: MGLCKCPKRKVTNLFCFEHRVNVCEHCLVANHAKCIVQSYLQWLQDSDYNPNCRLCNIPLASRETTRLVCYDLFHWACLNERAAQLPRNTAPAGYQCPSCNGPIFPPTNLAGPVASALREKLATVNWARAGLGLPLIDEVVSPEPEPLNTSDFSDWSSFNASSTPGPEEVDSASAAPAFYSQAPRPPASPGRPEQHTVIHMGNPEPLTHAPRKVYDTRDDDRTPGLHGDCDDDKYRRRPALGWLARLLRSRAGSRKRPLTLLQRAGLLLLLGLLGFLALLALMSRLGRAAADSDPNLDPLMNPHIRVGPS
UniProt Q8NAF0: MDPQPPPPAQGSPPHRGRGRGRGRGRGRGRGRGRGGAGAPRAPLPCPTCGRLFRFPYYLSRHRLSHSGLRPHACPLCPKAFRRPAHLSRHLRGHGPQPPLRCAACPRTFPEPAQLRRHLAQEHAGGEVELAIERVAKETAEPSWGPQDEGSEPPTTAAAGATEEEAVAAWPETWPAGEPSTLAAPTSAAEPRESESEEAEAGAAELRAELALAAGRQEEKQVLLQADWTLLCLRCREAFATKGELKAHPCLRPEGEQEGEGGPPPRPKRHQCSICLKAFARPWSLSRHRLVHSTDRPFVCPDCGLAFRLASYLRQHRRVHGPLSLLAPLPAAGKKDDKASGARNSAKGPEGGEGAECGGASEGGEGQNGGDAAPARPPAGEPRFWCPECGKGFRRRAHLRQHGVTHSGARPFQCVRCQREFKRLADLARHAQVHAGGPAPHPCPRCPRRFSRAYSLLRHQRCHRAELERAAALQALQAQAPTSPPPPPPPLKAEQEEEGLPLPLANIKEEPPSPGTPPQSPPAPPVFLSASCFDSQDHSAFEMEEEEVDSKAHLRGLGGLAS
UniProt Q8ND82: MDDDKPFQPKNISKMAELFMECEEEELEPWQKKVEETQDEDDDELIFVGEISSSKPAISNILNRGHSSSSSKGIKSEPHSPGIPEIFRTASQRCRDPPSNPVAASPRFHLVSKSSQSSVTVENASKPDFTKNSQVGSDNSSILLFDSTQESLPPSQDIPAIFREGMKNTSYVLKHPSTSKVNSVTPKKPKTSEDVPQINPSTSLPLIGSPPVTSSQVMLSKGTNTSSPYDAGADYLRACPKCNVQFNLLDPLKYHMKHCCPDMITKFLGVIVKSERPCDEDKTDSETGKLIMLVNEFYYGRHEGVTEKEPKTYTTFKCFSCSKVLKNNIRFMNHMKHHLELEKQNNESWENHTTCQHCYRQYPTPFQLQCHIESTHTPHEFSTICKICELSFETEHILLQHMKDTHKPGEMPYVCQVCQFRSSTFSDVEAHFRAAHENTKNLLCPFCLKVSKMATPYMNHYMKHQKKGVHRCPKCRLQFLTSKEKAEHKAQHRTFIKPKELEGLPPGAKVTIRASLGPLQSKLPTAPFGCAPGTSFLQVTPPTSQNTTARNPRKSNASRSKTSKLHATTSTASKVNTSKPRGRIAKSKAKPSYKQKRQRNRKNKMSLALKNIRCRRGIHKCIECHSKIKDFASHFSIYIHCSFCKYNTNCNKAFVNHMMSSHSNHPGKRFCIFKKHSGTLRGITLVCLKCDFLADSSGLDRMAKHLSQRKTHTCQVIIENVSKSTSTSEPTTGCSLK
UniProt Q8WV99: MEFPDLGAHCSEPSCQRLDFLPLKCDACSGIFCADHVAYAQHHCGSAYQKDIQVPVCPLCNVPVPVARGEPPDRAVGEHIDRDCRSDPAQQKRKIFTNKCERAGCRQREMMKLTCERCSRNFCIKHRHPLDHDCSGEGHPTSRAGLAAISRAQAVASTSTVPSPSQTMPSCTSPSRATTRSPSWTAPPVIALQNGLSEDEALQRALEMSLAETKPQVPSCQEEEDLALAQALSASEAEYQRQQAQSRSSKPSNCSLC

Compound: CC1Cc2ccccc2N1C(=O)C1CCCN(C1)C(=O)CCl (mixture of isomers) [TRIM25 ligand 11 (diastereomer mixture)]
Experiment: probe-labelled cysteine peptide fold change vs DMSO (competition) (log2 fold change); higher = less target engagement (more negative = stronger competition)
Settings: THP-1, incubation time: 4 h
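Further: competitive chemoproteomic profiling in live THP-1 cells with an iodoacetamide desthiobiotin (IA-DTB) probe, comparing probe-labelled peptide intensities in compound-treated cells against DMSO-treated controls.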

Row | Target | probe-labelled cysteine peptide fold change (10 µM) | probe-labelled cysteine peptide fold change (50 µM)
1 | ZNF687_Q8N1G0_1003_SFCSAPSLR (UniProt Q8N1G0) | -0.0505 | 0.0179
2 | ZMYM4_Q5VZL5_1368_IEEEHLWECK (UniProt Q5VZL5) | 0.202 | 0.0976
3 | ZGPAT_Q8N5A5_180_SLKPCPFFLEGK (UniProt Q8N5A5) | -0.064 | -0.157
4 | ZNF687_Q8N1G0_718_CSFSAHQR (UniProt Q8N1G0) | 0.09 | -0.0697
5 | ZFC3H1_O60293_241_QIQLELECINKDEK (UniProt O60293) | -0.184 | -0.442
6 | ZNF618_Q5T7W0_668_SMHEVIELLNVCEDLAGSTGLAK (UniProt Q5T7W0) | 0.204 | 0.0317
7 | ZNF516_Q92618_1016_TLATCAAGSR (UniProt Q92618) | 0.000755 | -0.0966
8 | ZNF598_Q86UK7_247_CSTEQFTHAFR (UniProt Q86UK7) | 0.0211 | 0.0987
9 | ZNF691_Q5VV52_176_CQESFR (UniProt Q5VV52) | 0.0422 | 0.196
10 | ZMYM3_Q14202_747_HFCNQQCLLR (UniProt Q14202) | 0.0965 | 0.162
11 | ZNF318_Q5VUA4_1740_SELDLGEPGPPGVEPPPQLLDIQCK (UniProt Q5VUA4) | 0.0837 | -0.104
12 | ZNF551_Q7Z340_340_HECGECR (UniProt Q7Z340) | 0.121 | 0.42
13 | ZFPL1_O95159_16_VTNLFCFEHR (UniProt O95159) | 0.0234 | 0.112
14 | ZNF362_Q5T0B9_232_VCPLTFFTK (UniProt Q5T0B9) | -0.264 | -0.0216
15 | ZNF622_Q969S3_69_GSATYCTVCSK (UniProt Q969S3) | -0.0414 | 0.123
16 | ZFPL1_O95159_24_VNVCEHCLVANHAK (UniProt O95159) | 0.0491 | -0.0641
17 | ZNF217_O75362_93_HVLMQHRPTLCEPAVLR (UniProt O75362) | 0.0289 | -0.0425
18 | ZMYND11_Q15326_126_CLSDEFR (UniProt Q15326) | 0.0207 | 0.0739
19 | ZNF579_Q8NAF0_77_LSHSGLRPHACPLCPK (UniProt Q8NAF0) | -0.134 | -0.0032
20 | ZNF687_Q8N1G0_566_IEVTCNHCAR (UniProt Q8N1G0) | 0.0232 | 0.00439
21 | ZNF597_Q96LX8_386_TCEESFALDSELACHQK (UniProt Q96LX8) | -0.108 | -0.17
22 | ZNF384_Q8TF68_408_CHNCHR (UniProt Q8TF68) | -0.00024 | 0.0311

Row | Target | probe-labelled cysteine peptide fold change (10 µM) | probe-labelled cysteine peptide fold change (50 µM)
23 | ZNF280D_Q6N043_630_CIECCSEIK (UniProt Q6N043) | -0.00597 | 0.171
24 | ZNF408_Q9H9D4_685_CFVVPEEPDAAPSLVLIHK (UniProt Q9H9D4) | 0.161 | -0.309
25 | ZFY_P08048_549_NFPHICVECGK (UniProt P08048) | 0.00079 | -0.0448
26 | ZFR_Q96KR1_384+387+391_CELCDVSCTGADAYAAHIR (UniProt Q96KR1) | -0.0294 | -0.0154
27 | ZNF280C_Q8ND82_94_CRDPPSNPVAASPR (UniProt Q8ND82) | -0.0425 | -0.104
28 | ZNF638_Q14966_688_EQSLHYGSVLLITELPEDGCTEEDVRK (UniProt Q14966) | 0.454 | -0.112
29 | ZNF451_Q9Y4E5_940_IGCFFLHPR (UniProt Q9Y4E5) | -0.144 | -0.0177
30 | ZMIZ2_Q8NF64_564_LLPAEHCITK (UniProt Q8NF64) | -0.0364 | -0.0924
31 | ZNF143_P52747_274_SHTGDRPYQCEHAGCGK (UniProt P52747) | 0.0334 | 0.0995
32 | ZNF280C_Q8ND82_734_STSTSEPTTGCSLK (UniProt Q8ND82) | -0.014 | -0.213
33 | ZNF516_Q92618_165_GAEGSACAPGEAK (UniProt Q92618) | -0.0124 | 0.0512
34 | ZNF330_Q9Y3S2_114_CLSTHACACPLTDAECVECER (UniProt Q9Y3S2) | 0.143 | -0.00405
35 | ZNF579_Q8NAF0_250_AHPCLRPEGEQEGEGGPPPRPK (UniProt Q8NAF0) | 0.0265 | 0.00891
36 | ZMYM3_Q14202_633+636_GVVSQCEHCR (UniProt Q14202) | 0.0611 | 0.191
37 | ZNF274_Q96GC6_361_DCALSSTLEDTLQGGVQEVQDTVLK (UniProt Q96GC6) | 0.0477 | -0.0417
38 | ZFP64_Q9NPA5_196_CHTGVKPYK (UniProt Q9NTW7) | -0.136 | -0.215
39 | ZNF598_Q86UK7_122_CPELPPFSLFGDLEQHMR (UniProt Q86UK7) | -0.126 | -0.139
40 | ZNF319_Q9P2F9_307_ESSELLQHPCTPSGERPFR (UniProt Q9P2F9) | -0.102 | -0.0637
41 | ZFPL1_O95159_16_KVTNLFCFEHR (UniProt O95159) | -0.108 | -0.0733
42 | ZNF598_Q86UK7_864_SAWQATTQQAGLDCR (UniProt Q86UK7) | -0.02 | -0.0545
43 | ZFAND2B_Q8WV99_134_HRHPLDHDCSGEGHPTSR (UniProt Q8WV99) | -0.252 | 0.202

A second format for some results above:
ZNF280D_Q6N043_630_CIECCSEIK (UniProt Q6N043)
  probe-labelled cysteine peptide fold change (10 µM) = -0.00597; probe-labelled cysteine peptide fold change (50 µM) = 0.171
ZNF280C_Q8ND82_94_CRDPPSNPVAASPR (UniProt Q8ND82)
  probe-labelled cysteine peptide fold change (10 µM) = -0.0425; probe-labelled cysteine peptide fold change (50 µM) = -0.104
ZNF143_P52747_274_SHTGDRPYQCEHAGCGK (UniProt P52747)
  probe-labelled cysteine peptide fold change (10 µM) = 0.0334; probe-labelled cysteine peptide fold change (50 µM) = 0.0995
